Publication PMC5652741
Results are given in words; binding and its absence hold for the method and conditions named. Binding seen in cells or lysates may run through a third protein. Some binding calls cover weakened binding; strength is not graded here.

Protein sequences, listed by entry. Tags and fused reporters are not part of them.
UniProt Q16665: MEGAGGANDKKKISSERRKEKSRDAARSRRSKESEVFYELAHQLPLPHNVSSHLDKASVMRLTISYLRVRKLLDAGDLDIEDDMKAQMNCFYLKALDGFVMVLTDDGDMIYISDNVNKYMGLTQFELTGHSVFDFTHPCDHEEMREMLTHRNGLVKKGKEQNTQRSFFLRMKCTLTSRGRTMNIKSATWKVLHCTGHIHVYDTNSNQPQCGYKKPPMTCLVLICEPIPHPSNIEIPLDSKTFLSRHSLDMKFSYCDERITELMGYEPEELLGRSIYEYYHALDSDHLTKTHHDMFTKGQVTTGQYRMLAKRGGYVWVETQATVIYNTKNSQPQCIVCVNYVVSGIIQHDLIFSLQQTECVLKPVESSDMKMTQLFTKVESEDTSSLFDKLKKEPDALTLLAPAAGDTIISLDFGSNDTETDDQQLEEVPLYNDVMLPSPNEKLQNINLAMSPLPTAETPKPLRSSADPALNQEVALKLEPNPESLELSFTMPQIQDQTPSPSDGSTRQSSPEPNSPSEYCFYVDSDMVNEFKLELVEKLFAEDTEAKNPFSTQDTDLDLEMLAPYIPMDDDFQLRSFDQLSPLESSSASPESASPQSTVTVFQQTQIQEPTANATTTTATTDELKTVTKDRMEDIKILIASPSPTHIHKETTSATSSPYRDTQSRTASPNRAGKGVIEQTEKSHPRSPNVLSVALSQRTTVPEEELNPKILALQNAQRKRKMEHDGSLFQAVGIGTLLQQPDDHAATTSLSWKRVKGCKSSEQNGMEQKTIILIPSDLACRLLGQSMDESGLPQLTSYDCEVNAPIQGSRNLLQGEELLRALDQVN

Molecular target: Hypoxia-Inducible Factor-1α (human (endogenous in U87)) (UniProt Q16665)
Experiment: co-IP; lysates (RIPA lysis buffer) of U87 cells stably overexpressing TFF3, immunoprecipitated with anti-TFF3 or anti-HIF-1α antibody (Pierce Protein A/G Magnetic IP/Co-IP Kit), then immunoblot

binding: binds
B1: Trefoil factor 3 (protein, UniProt Q07654 22-80)
chain: EEYVGLSANQCAVPAKDRVDCGYPHVTPKECNNRGCCFDSRIPGVPWCFKPLQEAECTF
